From publication PMC8858628 come the findings set out here.

Sequences of proteins named here, by UniProt entry; tags and fusion partners are left off. A change or cut given only in a name is not applied to a line headed by its entry.
UniProt Q09472: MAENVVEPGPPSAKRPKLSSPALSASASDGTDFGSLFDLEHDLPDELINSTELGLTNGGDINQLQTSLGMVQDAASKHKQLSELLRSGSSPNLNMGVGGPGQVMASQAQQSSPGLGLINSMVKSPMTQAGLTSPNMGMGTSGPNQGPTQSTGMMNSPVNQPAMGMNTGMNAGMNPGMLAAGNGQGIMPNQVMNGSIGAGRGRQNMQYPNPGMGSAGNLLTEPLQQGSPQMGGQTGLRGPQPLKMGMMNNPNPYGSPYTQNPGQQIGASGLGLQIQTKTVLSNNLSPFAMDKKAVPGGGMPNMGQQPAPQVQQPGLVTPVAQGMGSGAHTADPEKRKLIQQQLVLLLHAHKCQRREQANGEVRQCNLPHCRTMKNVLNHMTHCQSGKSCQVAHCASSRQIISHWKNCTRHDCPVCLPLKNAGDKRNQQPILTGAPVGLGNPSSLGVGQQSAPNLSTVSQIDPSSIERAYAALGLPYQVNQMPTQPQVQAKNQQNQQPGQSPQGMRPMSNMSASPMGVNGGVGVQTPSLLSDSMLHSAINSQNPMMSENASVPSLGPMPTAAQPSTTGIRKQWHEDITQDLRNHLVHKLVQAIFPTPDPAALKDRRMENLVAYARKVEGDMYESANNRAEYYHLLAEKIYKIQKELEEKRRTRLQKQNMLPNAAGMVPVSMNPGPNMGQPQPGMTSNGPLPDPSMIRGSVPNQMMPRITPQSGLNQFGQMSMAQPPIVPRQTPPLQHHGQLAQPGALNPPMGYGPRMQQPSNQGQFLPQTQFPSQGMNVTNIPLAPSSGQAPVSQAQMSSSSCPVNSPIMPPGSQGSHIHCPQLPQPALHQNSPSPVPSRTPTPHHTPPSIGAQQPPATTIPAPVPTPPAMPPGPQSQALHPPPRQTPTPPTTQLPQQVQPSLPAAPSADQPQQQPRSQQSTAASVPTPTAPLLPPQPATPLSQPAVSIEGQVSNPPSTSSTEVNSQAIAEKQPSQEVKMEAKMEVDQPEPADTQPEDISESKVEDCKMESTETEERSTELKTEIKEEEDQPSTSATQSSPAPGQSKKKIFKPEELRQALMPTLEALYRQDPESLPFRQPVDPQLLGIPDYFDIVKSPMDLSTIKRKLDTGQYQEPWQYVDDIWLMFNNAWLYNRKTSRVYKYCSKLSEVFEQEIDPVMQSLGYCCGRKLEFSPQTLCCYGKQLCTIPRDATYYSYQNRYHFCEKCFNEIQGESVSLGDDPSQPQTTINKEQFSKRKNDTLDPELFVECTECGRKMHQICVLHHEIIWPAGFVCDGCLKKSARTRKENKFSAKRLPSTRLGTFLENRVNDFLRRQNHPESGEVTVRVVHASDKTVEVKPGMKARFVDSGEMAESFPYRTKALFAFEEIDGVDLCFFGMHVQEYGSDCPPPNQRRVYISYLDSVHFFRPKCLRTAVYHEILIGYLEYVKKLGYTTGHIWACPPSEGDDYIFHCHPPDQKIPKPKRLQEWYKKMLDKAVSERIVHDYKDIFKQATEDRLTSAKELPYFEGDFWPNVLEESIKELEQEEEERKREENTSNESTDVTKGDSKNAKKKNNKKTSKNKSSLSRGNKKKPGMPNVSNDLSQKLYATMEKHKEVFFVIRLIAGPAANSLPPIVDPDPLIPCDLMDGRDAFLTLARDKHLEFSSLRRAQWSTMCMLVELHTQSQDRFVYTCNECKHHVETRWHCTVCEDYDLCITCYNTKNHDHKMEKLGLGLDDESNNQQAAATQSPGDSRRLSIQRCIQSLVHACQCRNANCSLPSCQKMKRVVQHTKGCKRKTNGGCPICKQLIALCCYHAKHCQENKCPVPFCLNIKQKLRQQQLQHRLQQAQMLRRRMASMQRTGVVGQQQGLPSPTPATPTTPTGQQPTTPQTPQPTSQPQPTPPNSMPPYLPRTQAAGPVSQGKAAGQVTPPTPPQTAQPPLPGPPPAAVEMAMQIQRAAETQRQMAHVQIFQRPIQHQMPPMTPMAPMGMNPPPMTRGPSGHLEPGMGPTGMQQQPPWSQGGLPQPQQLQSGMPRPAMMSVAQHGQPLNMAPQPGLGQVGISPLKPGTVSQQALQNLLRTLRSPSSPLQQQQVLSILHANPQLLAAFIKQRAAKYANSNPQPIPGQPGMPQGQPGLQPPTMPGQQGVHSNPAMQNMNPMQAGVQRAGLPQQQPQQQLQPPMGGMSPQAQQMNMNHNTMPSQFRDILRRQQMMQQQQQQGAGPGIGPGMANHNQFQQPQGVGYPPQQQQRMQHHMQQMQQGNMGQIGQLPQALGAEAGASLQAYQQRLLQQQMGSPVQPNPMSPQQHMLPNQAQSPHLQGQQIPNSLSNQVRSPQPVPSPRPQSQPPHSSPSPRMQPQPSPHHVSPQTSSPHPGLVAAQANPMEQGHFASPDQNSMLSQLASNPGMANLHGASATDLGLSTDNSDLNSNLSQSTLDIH

These are yes or no findings as the source states them, for the method shown. In cells and extracts the contact can be indirect. Some binding calls cover weakened binding; strength is not graded here.

The experiment has as its target T1, CCCTC‐binding factor (CTCF) (human (endogenous in THP-1)) (UniProt P49711).
T1 sequence: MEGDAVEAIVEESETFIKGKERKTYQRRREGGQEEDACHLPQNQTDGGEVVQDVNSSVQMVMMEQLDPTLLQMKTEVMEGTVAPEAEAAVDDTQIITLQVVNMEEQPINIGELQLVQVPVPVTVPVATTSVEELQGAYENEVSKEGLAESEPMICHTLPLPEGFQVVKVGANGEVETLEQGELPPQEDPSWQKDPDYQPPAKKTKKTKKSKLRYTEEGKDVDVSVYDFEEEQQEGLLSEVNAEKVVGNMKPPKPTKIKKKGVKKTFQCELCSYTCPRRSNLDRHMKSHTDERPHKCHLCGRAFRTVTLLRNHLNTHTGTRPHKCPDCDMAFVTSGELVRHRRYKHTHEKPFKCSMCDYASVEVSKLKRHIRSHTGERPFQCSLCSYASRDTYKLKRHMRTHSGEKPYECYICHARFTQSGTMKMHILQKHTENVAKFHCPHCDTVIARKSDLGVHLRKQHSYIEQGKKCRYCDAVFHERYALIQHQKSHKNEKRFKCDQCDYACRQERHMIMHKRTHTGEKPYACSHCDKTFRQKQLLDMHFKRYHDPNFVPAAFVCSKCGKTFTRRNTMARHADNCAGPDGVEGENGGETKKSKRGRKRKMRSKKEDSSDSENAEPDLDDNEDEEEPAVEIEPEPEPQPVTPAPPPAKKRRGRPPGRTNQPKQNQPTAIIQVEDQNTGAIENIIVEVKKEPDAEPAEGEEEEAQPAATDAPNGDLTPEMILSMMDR
The experiment can be described thus: co-IP; THP-1-derived TAMs lysed in IP lysis buffer with proteinase inhibitor; 1 ug anti-CTCF/anti-EP300, protein A Dynabeads at 4°C overnight, six washes; normal rabbit IgG as negative control; Western blot. On the technique in general: A western blot detects proteins with antibodies after separation by electrophoresis.

Consider “E1A binding protein p300 (EP300) (from UniProt Q09472 1-2414) (enzyme)”, for which the binding entry is recorded as “binds”.
